Experimental data from paper PMC4448153.
The exact form of at least one protein or probe is not confirmed. Weaker means in comparison with the reference protein, sequence or condition of that experiment. Protein sequences can lack the tags named with them.

Target: T1, RamB-His (UniProt Q8NTD8)
T1 sequence (looked up, limits assumed): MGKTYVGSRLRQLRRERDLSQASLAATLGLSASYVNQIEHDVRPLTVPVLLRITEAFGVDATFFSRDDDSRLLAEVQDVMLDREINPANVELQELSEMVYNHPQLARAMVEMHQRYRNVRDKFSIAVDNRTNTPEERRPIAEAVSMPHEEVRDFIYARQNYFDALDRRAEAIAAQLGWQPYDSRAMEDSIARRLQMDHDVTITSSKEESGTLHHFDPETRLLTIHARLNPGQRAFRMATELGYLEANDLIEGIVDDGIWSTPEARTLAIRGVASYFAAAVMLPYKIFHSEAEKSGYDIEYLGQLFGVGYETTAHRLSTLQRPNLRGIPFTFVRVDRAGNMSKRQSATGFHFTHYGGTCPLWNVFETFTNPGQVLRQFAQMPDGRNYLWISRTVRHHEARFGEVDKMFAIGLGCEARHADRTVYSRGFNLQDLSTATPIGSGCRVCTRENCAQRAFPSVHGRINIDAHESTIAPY
Assay: EMSA
Conditions: EMSA: 100 mM Tris/HCl pH 7.5, 20% glycerol, 100 mM KCl, 20 mM MgCl2, 1 mM EDTA, 30 min room temperature, DNA 5-61 nM, pull-down bead equilibration: 20 mM Tris-HCl pH 7.5, recombinant protein, protein details: C-terminal His, probe letters rebuilt from the primers and the …

Row | Sequence | binding result (100-400-fold molar excess RamB) | binding result (100-fold molar excess RamB)
1 | CCCCTCGAGTAAAAAAGAGACTTGCTAAAAACCTGTGAGAATAATAAGAATCGGTGATTTTCGTTCCGCAGGGGTCGAAAATTGCCGATTTTTGTGATTAGAGTCTCCAAATGTTACGAGTGAGATGTGGGTAGTGGCAGAATTTGCCGAACGATAGCCCAGAGTTCATAAGTTGTTAACCAAATTAGCCTGAGTTAGTCATTTCAAGGTCTTAGGTTTTTAAGTCGTGAGCAATCCGGAGGGAAACTAGCCCGCCTACAGGATCTGCTCAGACGATGTCTTCACTTAAACCGGAAAGGCTTCCCCGTGAACCTCACTCTTAAGCGCTCCATCGCCCTTGTGGGCGCAGTTACTGCAGGCTCCTTCGCTCTTGTAGCTTGCTCCGACTCCAATGAGTCTGATTCCACCTCCTCATCTGCAGCTTCCACCGGTTCTTCCGATGCTGCATCCATTGAGGGCCTTTCCGGTGTTACCGGTCAGCTCGTTGCTGAAGGTGCATCTTCCCAGCAGTCCGCATCTAGACG (double strand) [RF0 (full-length pstS promoter)] | binds | –
2 | CGTCTAGATGCGGACTGCTGGGAAGATGCACCTTCAGCAACGAGCTGACCGGTAACACCGGAAAGGCCCTCAATGGATGCAGCATCGGAAGAACCGGTGGAAGCTGCAGATGAGGAGGTGGAATCAGACTCATTGGAGTCGGAGCAAGCTACAAGAGCGAAGGAGCCTGCAGTAACTGCGCCCACAAGGGCGATGGAGCGCTTAAGAGTGAGGTTCACGGGGAAGCCTTTCCGGTTTAAGTGAAGACATCGTCTGAGCAGATCCTGTAGGCGGGCTAGTTTCCCTCCGGATTGCTCACGACTTAAAAACCTAAGACCTTGAAATGACTAACTCAGGCTAATTTGGTTAACAACTTATGAACTCTGGGCTATCGTTCGGCAAATTCTGCCACTACCCACATCTCACTCGTAACATTTGGAGACTCTAATCACAAAAATCGGCAATTTTCGACCCCTGCGGAACGAAAATCACCGATTCTTACTCGAGGGG (double strand) [R0F0] | – | binds
3 | CGTCTAGATGCGGACTGCTGGGAAGATGCACCTTCAGCAACGAGCTGACCGGTAACACCGGAAAGGCCCTCAATGGATGCAGCATCGGAAGAACCGGTGGAAGCTGCAGATGAGGAGGTGGAATCAGACTCATTGGAGTCGGAGCAAGCTACAAGAGCGAAGGAGCCTGCAGTAACTGCGCCCACAAGGGCGATGGAGCGCTTAAGAGTGAGGTTCACGGGGAAGCCTTTCCGGTTTAAGTGAAGACATCGTCTGAGCAGATCCTGTAGGCGGGCTAGTTTCCCTCCGGATTGCTCACGACTTAAAAACCTAAGACCTTGAAATGACTAACTCAGGCTCGAGGGG (double strand) [R2F0] | – | binds more weakly
